# Measurements from patent US6794414B1, “Method and compositions for treating diseases mediated by transglutaminase activity” (Yeda Research and Development Co. Ltd., priority 1998, dated 2004).
# The chains behind the UniProt entries cited, without tags or fusion partners. Residues count along the entry.
# UniProt P42858, residues 1-310: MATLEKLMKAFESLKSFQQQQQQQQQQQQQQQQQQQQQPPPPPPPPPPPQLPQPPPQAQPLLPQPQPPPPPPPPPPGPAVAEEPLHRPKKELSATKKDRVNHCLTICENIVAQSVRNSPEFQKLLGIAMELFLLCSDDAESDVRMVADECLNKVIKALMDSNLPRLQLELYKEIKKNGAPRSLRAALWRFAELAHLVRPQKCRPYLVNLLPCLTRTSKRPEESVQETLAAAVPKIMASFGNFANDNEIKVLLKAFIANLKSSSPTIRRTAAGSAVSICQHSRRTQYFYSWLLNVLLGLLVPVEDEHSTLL
# No constants are given. Whether binding was seen depends on the method and setting. Some entries that bind do so weakly or less than the wild type.
# B1: guinea pig liver TGase (Sigma) (enzyme, UniProt P08587 2-690, looked up)
# chain: AEDLILERCDLQLEVNGRDHRTADLCRERLVLRRGQPFWLTLHFEGRGYEAGVDTLTFNAVTGPDPSEEAGTMARFSLSSAVEGGTWSASAVDQQDSTVSLLLSTPADAPIGLYRLSLEASTGYQGSSFVLGHFILLYNPRCPADAVYMDSDQERQEYVLTQQGFIYQGSAKFINGIPWNFGQFEDGILDICLMLLDTNPKFLKNAGQDCSRRSRPVYVGRVVSAMVNCNDDQGVLQGRWDNNYSDGVSPMSWIGSVDILRRWKDYGCQRVKYGQCWVFAAVACTVLRCLGIPTRVVTNFNSAHDQNSNLLIEYFRNESGEIEGNKSEMIWNFHCWVESWMTRPDLEPGYEGWQALDPTPQEKSEGTYCCGPVPVRAIKEGHLNVKYDAPFVFAEVNADVVNWIRQKDGSLRKSINHLVVGLKISTKSVGRDEREDITHTYKYPEGSEEEREAFVRANHLNKLATKEEAQEETGVAMRIRVGQNMTMGSDFDIFAYITNGTAESHECQLLLCARIVSYNGVLGPVCSTNDLLNLTLDPFSENSIPLHILYEKYGDYLTESNLIKVRGLLIEPAANSYVLAERDIYLENPEIKIRVLGEPKQNRKLIAEVSLKNPLPVPLLGCIFTVEGAGLTKDQKSVEVPDPVEAGEQAKVRVDLLPTEVGLHKLVVNFECDKLKAVKGYRNVIIGPA
# Key:
# httQ23 (310 amino acids) [1] = target: httQ23 (310 amino acids) (UniProt P42858); assay: Western blot of a gel parallel to the 35S gel
# httQ23 (310 amino acids) [2] = target: httQ23 (310 amino acids) (UniProt P42858); assay: Western blot, co-migration with 35S labelled htt aggregates
binder,measurement,setting,value
B1,binding,httQ23 (310 amino acids) [1],binds
same,binding,httQ23 (310 amino acids) [2],binds
